Library screening results

Source: ChEMBL document CHEMBL3988442, “University of Dundee, Small-Polar-MMV Screening Library” (2021).

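Assay on Mycobacterium tuberculosis, filed only as a heat shock assay from Cornell; the read-out is not stated. The concentration is filed as 10 mM, unlikely as a test dose, so the dose is not known. Higher reads as stronger inhibition (inferred: compounds with an IC50 in retests scored well above the rest). Of about 69,000 compounds tested this way, about 930 (1.4%) reached 50% or more in at least one test.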

Results are given as percent effect.
The controls that fix the scale are not given in the record; negative values are as filed.
This is an unselected part of the compounds tested.

Compound,effect
Cc1nc(CNCC2Cn3nncc3CO2)cs1.O=C(O)C(F)(F)F (stereo not shown),3.892
CC(C)c1noc(C(C)N2CCN(CCCN3CCCC3=O)CC2)n1 (stereo not shown),-6.775
COc1c(C)cc(C(C(=O)O)N(C)Cc2ccn[nH]2)cc1C (stereo not shown),4.764
CNC(=O)c1cc(C2CCCNC2)n[nH]1.Cl (stereo not shown),-5.465
Cc1cc(C)n(C2CN(CC(=O)N3CCOCC3)C2)n1,13.17
Cc1cccc(C(C(=O)NCC2(O)CCCCC2)N(C)C)c1 (stereo not shown),-7.569
O=C(c1cncs1)N1CCOCC(Cc2ccncn2)C1 (stereo not shown),2.078
COCc1nc(C2CC2)nn1-c1ccccc1Cl,-29.25
COc1ccc2c(c1)C(C(=O)NCCCN1CCN(C)CC1)CC(=O)N2 (stereo not shown),5.399
O=C1CCC(=O)N1c1nn(Cc2ccc(F)cc2)cc1Cl,-26.03
COc1cccc(C2CCCN2C(=O)c2ccc(=O)n(C)c2)c1 (stereo not shown),-14.47
Cc1ccc(F)cc1S(=O)(=O)N1C[C@@H](C)[C@@](C)(O)C1,-5.282
Cc1cc(C)c2c(c1)C(NCc1c(C)nn(C)c1N(C)C)CCO2 (stereo not shown),4.666
CN1CCN(C(=O)C2CCCc3[nH]ncc32)CC1 (stereo not shown),0.1224
CCc1cc(N2CCC(NCCc3ccc(C)o3)CC2)nc(C)n1,-31.05
COc1ccc(C(=O)N2CC(=O)N(C3CCC3)CC(O)C2)c(OC)c1 (stereo not shown),20.49
Cc1[nH]nc(CCC(=O)NCC2CCN(C3CCCCC3)C2)c1C (stereo not shown),36.93
CC(NC(=O)CCCOc1ccccc1Cl)c1ccncc1 (stereo not shown),-11.7
CC(NC(=O)Cn1cccn1)c1ccc2c(c1)OCCCO2 (stereo not shown),-27.94
Cc1cc(NS(=O)(=O)c2cnc3onc(C)c3c2)no1,-21.3
Cc1cccc(C)c1CNC1(CCO)CCOCC1,-4.355
CCc1ncc2c(n1)CN(C(=O)c1c(C)[nH]c(C(C)=O)c1C)C2,7.178
CNC(=O)C1CCN(c2ncnc3c2CCN(C(=O)C2CC2)C3)C1 (stereo not shown),-9.002
CS(=O)(=O)N1CC(c2nc(N)ncc2-c2ccc(F)cc2)C1,0.4688
[H][C@]12CC[C@@]3(N=C(C)NC3=O)[C@@]1([H])CN(C(=O)NCc1cccc(F)c1)C2,-18.69
[H][C@@]12CCN(C(=O)C3CCOCC3)[C@]1([H])CCC(=O)N2CC1CC1,-16.3
CNC(=O)c1sc2ccccc2c1CC1CCCN1Cc1cnc(C)s1 (stereo not shown),-1.208
Cc1cnc(N2CCC3(CCCN(c4ncc(F)cn4)C3)C2)nc1 (stereo not shown),-11.79
COCCN1CCCC2(CCN(Cc3nnc(C4CC4)o3)C2)C1=O (stereo not shown),-23.63
CCOCC(O)CN1CCN(C(=O)Cc2ccccc2C)CC1 (stereo not shown),8.588
CCn1cc(CN(C)C(=O)c2cccc(CCC(C)(C)O)c2)cn1,15.69
O=C(O)C(F)(F)F.O=C(O)C(F)(F)F.[H][C@@]12CCCO[C@]1([H])[C@H](N(C)Cc1ccco1)CN(Cc1ccc(C)s1)C2,-12.7
Cc1cc(NCCNc2cccnc2)nc(N)n1,-13.91
Cn1cc(CN2CCCC3(CCN(Cc4ccncc4)C3=O)C2)cn1 (stereo not shown),-30.85
CC(C)(N)c1nc(C(F)F)cc(=O)[nH]1.Cl,37.94
CCOCc1ccccc1NC(=O)NCC(C)(O)c1cc(C)oc1C (stereo not shown),13.01
CN(C)CC(=O)N1Cc2ncn(C)c2C(COCC2CCOCC2)C1 (stereo not shown),-1.465
O[C@@H]1CN(CC2=Cc3cc(Cl)ccc3OC2)CC[C@H]1N1CCCCCC1,85.47
O=c1[nH]c2nc(NCC3CCCO3)ncc2c(=O)n1-c1cccc(F)c1 (stereo not shown),4.043
CCC(CC)C(=O)NCc1c(C)nn(C)c1N1CCCN(C)CC1,-28.14
OC[C@H]1CCCN1c1nccc(-c2c[nH]nc2C2CCCCC2)n1,44.87
CN(C)c1ncccc1CNS(=O)(=O)c1ccccc1F,15.87
Cc1ccc(CC(NC(=O)Cn2cnnn2)c2ccccn2)cc1 (stereo not shown),6.864
Cc1ccc(NC2CCN(C(=O)CCOCC(F)(F)F)CC2)nn1,-2.449
COc1cc(C)nc(N2CCN(C(=O)CCc3cccs3)CC2)n1,-7.742
O=C(Cn1ccc(=O)[nH]c1=O)NCc1cccnc1OCC(F)(F)F,-9.825
O=C(c1cnc(Cc2c(Cl)cccc2Cl)nc1O)N1CCNCC1,-1.267
NC(=O)[C@@H]1CCCN1C(=O)c1cn(C/C=C/c2ccccc2)nn1,-3.962
CNC(=O)CS(=O)(=O)NC1CCC(C)CC1 (stereo not shown),18.34
Cc1nn(C)c(C)c1C1CCCN1CC(=O)NCc1ccccn1 (stereo not shown),-2.181
Cc1cc(C(=O)N2CCCCC2)ccc1NS(C)(=O)=O,12.6
CN(Cc1ccco1)C(=O)C1CCCc2ccccc21 (stereo not shown),-14.6
CCN(C(=O)c1cccc2c1OCO2)c1ccccc1,-9.886
CCNC(=O)N1CCC(c2ccccc2)C1 (stereo not shown),36.3
CN(C)c1ncnc2c1CCN(CC1CCCC1)CC2.O=C(O)C(F)(F)F,2.211

For reference, 4 entries once more:

Compound,effect
COCc1nc(C2CC2)nn1-c1ccccc1Cl,-29.25
OC[C@H]1CCCN1c1nccc(-c2c[nH]nc2C2CCCCC2)n1,44.87
CNC(=O)c1sc2ccccc2c1CC1CCCN1Cc1cnc(C)s1 (stereo not shown),-1.208
Cc1nc(CNCC2Cn3nncc3CO2)cs1.O=C(O)C(F)(F)F (stereo not shown),3.892